From PubChem BioAssay AID504467 (National Center for Advancing Translational Sciences (NCATS), 2011)
Out of some 330,000 compounds screened, about 7,700 (2.3%) were called active. This list was built around the results that the source calls inconclusive (neither active nor inactive); the mix of calls is not that of the screen. Calls come from the whole dose curve; as a rule, active = well fitted inhibition curve with a large enough effect; inconclusive = small, poorly fitted or top-dose-only effect, or effect the other way; inactive = flat fitted curve, though single readings scatter. A potency beside an inconclusive call is a rough fit, not a confirmed value.
Potency is the fitted concentration of half-maximal effect.

Test: qHTS screen for small molecules that inhibit ELG1-dependent DNA repair in human embryonic kidney (HEK293T) cells expressing luciferase-tagged ELG1; note: nearly all actives have a fitted effect of over 55% in size
Conditions: HEK293T ELG1-luciferase reporter, luminescence, 16 h, DNA damage induced by 5-fluorouridine; series mostly up to 46.1 µM
Summary of the method: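 HEK293T cells expressing luciferase-tagged ELG1 (2,000/well) received 5-Fluorouridine plus compound or DMSO for 16 hr at 37 °C. Luciferase was read by ONE-Glo luminescence after 30 min at room temperature.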
For `Cc1ccc(C)c(N2CCN(CC(=O)Nc3ccc4[nH]c(=O)[nH]c4c3)CC2)c1`, the Potency was “inactive”. For `O=C(CSc1nnc(NC(=O)c2c(F)cccc2F)s1)NC1CC1`, the Potency was inconclusive: 18.3 µM [activator, partial curve, poor fit]. In the case of `Cc1ccc(OCC(=O)Nc2ccc(-c3nnc(-c4ccco4)o3)cc2)cc1`, the Potency is reported as inconclusive: 8.2 µM [activator, partial curve]. For `COC(=O)c1c(-c2cccc3ccccc23)csc1NC(=O)Cc1ccc(OC)c(OC)c1`, the Potency was active: 20.6 µM. For `COc1cccc(NC(=O)CS(=O)(=O)Cc2nc(-c3ccc(C)cc3)oc2C)c1`, the Potency was inconclusive: 25.9 µM [inhibitor, partial curve, poor fit]. With `N#C/C(=C\c1ccc(OCc2ccc(F)cc2)cc1)C(=O)Nc1cccc(C(=O)O)c1` the Potency was inconclusive: 18.3 µM [activator, single point]. In the case of `COc1cc2nc(N3CCN(c4cc(C)ccc4C)CC3)nc(N)c2cc1OC`, the Potency is reported as inconclusive: 18.3 µM [inhibitor, single point]. With `Cc1ccc(N(CC(=O)Nc2ccc3c(c2)OCCO3)S(C)(=O)=O)cc1` the Potency was inconclusive: 14.6 µM [activator, partial curve]. For `CCOc1ccc(CC2CCC(=O)NC2=O)cc1` (stereo unspecified), the Potency was inconclusive: 20.6 µM [activator, single point]. In the case of `CC1CCN(Cc2nnnn2-c2cccc([N+](=O)[O-])c2)CC1`, the Potency is reported as “inactive”. In the case of `CC(=O)N1CCSc2ccc(S(=O)(=O)NCCc3cccc(C)c3)cc21`, the Potency is reported as inconclusive: 29.1 µM [inhibitor, single point]. In the case of `O=C(CCSc1nnc(-c2ccncc2)o1)Nc1ccc(Cl)cc1`, the Potency is reported as inconclusive: 14.6 µM [inhibitor, partial curve]. In the case of `CC(C)C(=O)Nc1cccc(-c2cn3ccccc3n2)c1`, the Potency is reported as inconclusive: 8.2 µM [activator, partial curve]. With `O=C(Nc1ccccc1C(=O)N1CCCC1)c1cccc(S(=O)(=O)N2CCCCCC2)c1` the Potency was inconclusive: 14.6 µM [inhibitor, single point]. With `Cc1cc(C)c2[nH]c(C(=O)N3CCC(n4nccc4NC(=O)C4CC4)CC3)c(C)c2c1` the Potency was “inactive”. For `NC1=NC[C@H](Cc2ccc(O)cc2)N1CCc1cc(C(F)(F)F)cc(C(F)(F)F)c1`, the Potency was “inactive”. With `COc1ccc(CCCC(=O)N/N=C/c2cccc(OC)c2O)cc1C` the Potency was “inactive”. For `COc1ccc(NC(=O)c2ccccc2C(=O)N2CCCCC2)cc1`, the Potency was inconclusive: 20.6 µM [activator, single point]. In the case of `COc1ccc(/C=N/Nc2ncnc3c2[nH]c2ccccc23)c(OC)c1OC`, the Potency is reported as “inactive”. For `COc1ccc(-c2c[n+]3c4n2CCCCC4=C(c2ccc(Br)cc2)C3)cc1`, the Potency was inconclusive: 18.4 µM [inhibitor, partial curve, poor fit]. In the case of `COc1ccc(Nc2nnc(Cc3ccncc3)c3ccccc23)c(OC)c1`, the Potency is reported as inconclusive: 32.6 µM [inhibitor, single point]. With `COc1cc(CN(C(=O)c2cccs2)C2CCS(=O)(=O)C2)cc(OC)c1OC` (stereo unspecified) the Potency was “inactive”. In the case of `Cc1cccc2c(C(=O)N3CCN(c4ccccn4)CC3)cc(-c3cccc(Br)c3)nc12`, the Potency is reported as active: 14.6 µM. With `Cc1cccc(C)c1NC(=O)CCCSc1nnc(-c2ccc(F)cc2)n1-c1ccccc1` the Potency was active: 16.4 µM. With `C[C@H]1CN=C2N(CCNC(=O)CCC3CCCCC3)[C@H](Cc3ccc(O)cc3)CN21` the Potency was “inactive”. For `O=C(N/N=C/c1cccc2ccccc12)c1cccc(F)c1`, the Potency was inconclusive: 20.6 µM [activator, partial curve, poor fit]. In the case of `COc1cc(SC)ccc1C(=O)N1CCN(c2ccc(O)cc2)CC1`, the Potency is reported as active: 20.6 µM. With `CNC(=S)NNC(=O)c1ccccc1Br` the Potency was “inactive”. For `N#CC1=C(N)S[C@@H](C(=O)c2ccc(F)cc2)[C@@H]1c1cccs1`, the Potency was inconclusive: 20.6 µM [inhibitor, partial curve]. For `Cc1cc(C)c(C#N)c(SCCN2CCOCC2)n1`, the Potency was “inactive”. For `CC(C)c1ccc(NC(=O)c2ccc3snnc3c2)cc1`, the Potency was “inactive”. For `O=C(CSc1nnc(-c2ccco2)n1Cc1ccccc1)c1ccccc1`, the Potency was inconclusive: 18.4 µM [activator, partial curve]. For `O=C(/C=C/c1ccccc1Cl)Nc1ccc(-c2nnc3n2CCCCC3)cc1`, the Potency was active: 18.4 µM. For `CCCC(=O)Nc1ccc(C(=O)COC(=O)C2CC2)cc1`, the Potency was inconclusive: 6.51 µM [activator, single point]. In the case of `CCN1CCN(c2ccc(S(=O)(=O)N3CCCC3)cn2)CC1`, the Potency is reported as “inactive”. With `CCCSc1nc(-n2ncc(C#N)c2N)c2c3c(sc2n1)CCC(C)C3` (stereo unspecified) the Potency was inconclusive: 23.1 µM [inhibitor, single point].
